# Measured values published in publication PMC7694386.
# Amino acid sequences for entries named in this document (tags omitted).
# UniProt O95817: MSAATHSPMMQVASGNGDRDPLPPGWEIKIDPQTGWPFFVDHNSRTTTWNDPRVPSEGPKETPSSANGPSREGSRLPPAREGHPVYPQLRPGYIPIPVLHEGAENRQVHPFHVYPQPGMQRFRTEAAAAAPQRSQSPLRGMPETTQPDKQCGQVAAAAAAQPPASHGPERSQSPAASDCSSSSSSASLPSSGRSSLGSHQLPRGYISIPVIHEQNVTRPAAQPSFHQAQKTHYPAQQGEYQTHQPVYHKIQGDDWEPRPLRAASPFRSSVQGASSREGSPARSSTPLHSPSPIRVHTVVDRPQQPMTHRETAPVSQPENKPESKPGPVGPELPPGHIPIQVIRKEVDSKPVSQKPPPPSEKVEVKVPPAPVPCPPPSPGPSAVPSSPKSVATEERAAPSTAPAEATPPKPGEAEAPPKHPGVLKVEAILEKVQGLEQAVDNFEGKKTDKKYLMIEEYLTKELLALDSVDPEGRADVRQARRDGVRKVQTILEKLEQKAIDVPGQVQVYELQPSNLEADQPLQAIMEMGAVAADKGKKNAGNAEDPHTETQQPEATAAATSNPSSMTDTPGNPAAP
# Results are given in words; binding and its absence hold for the method and conditions named. In cells and extracts the contact can be indirect. Here binding means that the protein was enriched with, or labelled near, the bait; the list need not be complete.
# B1: Lamina-associated polypeptide 2, isoforms beta/gamma (protein, UniProt P42167 1-454)
# chain: MPEFLEDPSVLTKDKLKSELVANNVTLPAGEQRKDVYVQLYLQHLTARNRPPLPAGTNSKGPPDFSSDEEREPTPVLGSGAAAAGRSRAAVGRKATKKTDKPRQEDKDDLDVTELTNEDLLDQLVKYGVNPGPIVGTTRKLYEKKLLKLREQGTESRSSTPLPTISSSAENTRQNGSNDSDRYSDNEEDSKIELKLEKREPLKGRAKTPVTLKQRRVEHNQSYSQAGITETEWTSGSSKGGPLQALTRESTRGSRRTPRKRVETSEHFRIDGPVISESTPIAETIMASSNESLVVNRVTGNFKHASPILPITEFSDIPRRAPKKPLTRAEVGEKTEERRVERDILKEMFPYEASTPTGISASCRRPIKGAAGRPLELSDFRMEESFSSKYVPKYVPLADVKSEKTKKGRSIPVWIKILLFVVVAVFLFLVYQAMETNQVNPFSNFLHVDPRKSN
# B2: Tryptophan--tRNA ligase, cytoplasmic (protein, UniProt P23381 1-471)
# chain: MPNSEPASLLELFNSIATQGELVRSLKAGNASKDEIDSAVKMLVSLKMSYKAAAGEDYKADCPPGNPAPTSNHGPDATEAEEDFVDPWTVQTSSAKGIDYDKLIVRFGSSKIDKELINRIERATGQRPHHFLRRGIFFSHRDMNQVLDAYENKKPFYLYTGRGPSSEAMHVGHLIPFIFTKWLQDVFNVPLVIQMTDDEKYLWKDLTLDQAYSYAVENAKDIIACGFDINKTFIFSDLDYMGMSSGFYKNVVKIQKHVTFNQVKGIFGFTDSDCIGKISFPAIQAAPSFSNSFPQIFRDRTDIQCLIPCAIDQDPYFRMTRDVAPRIGYPKPALLHSTFFPALQGAQTKMSASDPNSSIFLTDTAKQIKTKVNKHAFSGGRDTIEEHRQFGGNCDVDVSFMYLTFFLEDDDKLEQIRKDYTSGAMLTGELKKALIEVLQPLIAEHQARRKEVTDEIVKEFMTPRKLSFDFQ
# B3: EDC4 (protein, UniProt Q6P2E9 1-1401)
# chain: MASCASIDIEDATQHLRDILKLDRPAGGPSAESPRPSSAYNGDLNGLLVPDPLCSGDSTSANKTGLRTMPPINLQEKQVICLSGDDSSTCIGILAKEVEIVASSDSSISSKARGSNKVKIQPVAKYDWEQKYYYGNLIAVSNSFLAYAIRAANNGSAMVRVISVSTSERTLLKGFTGSVADLAFAHLNSPQLACLDEAGNLFVWRLALVNGKIQEEILVHIRQPEGTPLNHFRRIIWCPFIPEESEDCCEESSPTVALLHEDRAEVWDLDMLRSSHSTWPVDVSQIKQGFIVVKGHSTCLSEGALSPDGTVLATASHDGYVKFWQIYIEGQDEPRCLHEWKPHDGRPLSCLLFCDNHKKQDPDVPFWRFLITGADQNRELKMWCTVSWTCLQTIRFSPDIFSSVSVPPSLKVCLDLSAEYLILSDVQRKVLYVMELLQNQEEGHACFSSISEFLLTHPVLSFGIQVVSRCRLRHTEVLPAEEENDSLGADGTHGAGAMESAAGVLIKLFCVHTKALQDVQIRFQPQLNPDVVAPLPTHTAHEDFTFGESRPELGSEGLGSAAHGSQPDLRRIVELPAPADFLSLSSETKPKLMTPDAFMTPSASLQQITASPSSSSSGSSSSSSSSSSSLTAVSAMSSTSAVDPSLTRPPEELTLSPKLQLDGSLTMSSSGSLQASPRGLLPGLLPAPADKLTPKGPGQVPTATSALSLELQEVEPLGLPQASPSRTRSPDVISSASTALSQDIPEIASEALSRGFGSSAPEGLEPDSMASAASALHLLSPRPRPGPELGPQLGLDGGPGDGDRHNTPSLLEAALTQEASTPDSQVWPTAPDITRETCSTLAESPRNGLQEKHKSLAFHRPPYHLLQQRDSQDASAEQSDHDDEVASLASASGGFGTKVPAPRLPAKDWKTKGSPRTSPKLKRKSKKDDGDAAMGSRLTEHQVAEPPEDWPALIWQQQRELAELRHSQEELLQRLCTQLEGLQSTVTGHVERALETRHEQEQRRLERALAEGQQRGGQLQEQLTQQLSQALSSAVAGRLERSIRDEIKKTVPPCVSRSLEPMAGQLSNSVATKLTAVEGSMKENISKLLKSKNLTDAIARAAADTLQGPMQAAYREAFQSVVLPAFEKSCQAMFQQINDSFRLGTQEYLQQLESHMKSRKAREQEAREPVLAQLRGLVSTLQSATEQMAATVAGSVRAEVQHQLHVAVGSLQESILAQVQRIVKGEVSVALKEQQAAVTSSIMQAMRSAAGTPVPSAHLDCQAQQAHILQLLQQGHLNQAFQQALTAADLNLVLYVCETVDPAQVFGQPPCPLSQPVLLSLIQQLASDLGTRTDLKLSYLEEAVMHLDHSDPITRDHMGSVMAQVRQKLFQFLQAEPHNSLGKAARRLSLMLHGLVTPSLP
# B4: WW domain-containing adapter protein with coiled-coil (protein, UniProt Q9BTA9 1-647)
# chain: MVMYARKQQRLSDGCHDRRGDSQPYQALKYSSKSHPSSGDHRHEKMRDAGDPSPPNKMLRRSDSPENKYSDSTGHSKAKNVHTHRVRERDGGTSYSPQENSHNHSALHSSNSHSSNPSNNPSKTSDAPYDSADDWSEHISSSGKKYYYNCRTEVSQWEKPKEWLEREQRQKEANKMAVNSFPKDRDYRREVMQATATSGFASGMEDKHSSDASSLLPQNILSQTSRHNDRDYRLPRAETHSSSTPVQHPIKPVVHPTATPSTVPSSPFTLQSDHQPKKSFDANGASTLSKLPTPTSSVPAQKTERKESTSGDKPVSHSCTTPSTSSASGLNPTSAPPTSASAVPVSPVPQSPIPPLLQDPNLLRQLLPALQATLQLNNSNVDISKINEVLTAAVTQASLQSIIHKFLTAGPSAFNITSLISQAAQLSTQAQPSNQSPMSLTSDASSPRSYVSPRISTPQTNTVPIKPLISTPPVSSQPKVSTPVVKQGPVSQSATQQPVTADKQQGHEPVSPRSLQRSSSQRSPSPGPNHTSNSSNASNATVVPQNSSARSTCSLTPALAAHFSENLIKHVQGWPADHAEKQASRLREEAHNMGTIHMSEICTELKNLRSLVRVCEIQATLREQRILFLRQQIKELEKLKNQNSFMV
# B5: Dolichyl-diphosphooligosaccharide-protein glycosyltransferase subunit 1 (protein, UniProt P04843 24-607)
# chain: ASSEAPPLINEDVKRTVDLSSHLAKVTAEVVLAHLGGGSTSRATSFLLALEPELEARLAHLGVQVKGEDEEENNLEVRETKIKGKSGRFFTVKLPVALDPGAKISVIVETVYTHVLHPYPTQITQSEKQFVVFEGNHYFYSPYPTKTQTMRVKLASRNVESYTKLGNPTRSEDLLDYGPFRDVPAYSQDTFKVHYENNSPFLTITSMTRVIEVSHWGNIAVEENVDLKHTGAVLKGPFSRYDYQRQPDSGISSIRSFKTILPAAAQDVYYRDEIGNVSTSHLLILDDSVEMEIRPRFPLFGGWKTHYIVGYNLPSYEYLYNLGDQYALKMRFVDHVFDEQVIDSLTVKIILPEGAKNIEIDSPYEISRAPDELHYTYLDTFGRPVIVAYKKNLVEQHIQDIVVHYTFNKVLMLQEPLLVVAAFYILFFTVIIYVRLDFSITKDPAAEARMKVACITEQVLTLVNKRIGLYRHFDETVNRYKQSRDISTLNSGKKSLETEHKALTSEIALLQSRLKTEGSDLCDRVSEMQKLDAQVKELVLKSAVEAERLVAGKLKKDTYIENEKLISGKRQELVTKIDHILDAL
# B6: Mitogen-activated protein kinase kinase kinase 6 (protein, UniProt O95382 1-1288)
# chain: MAGPCPRSGAERAGSCWQDPLAVALSRGRQLAAPPGRGCARSRPLSVVYVLTREPQPGLEPREGTEAEPLPLRCLREACAQVPRPRPPPQLRSLPFGTLELGDTAALDAFYNADVVVLEVSSSLVQPSLFYHLGVRESFSMTNNVLLCSQADLPDLQALREDVFQKNSDCVGSYTLIPYVVTATGRVLCGDAGLLRGLADGLVQAGVGTEALLTPLVGRLARLLEATPTDSCGYFRETIRRDIRQARERFSGPQLRQELARLQRRLDSVELLSPDIIMNLLLSYRDVQDYSAIIELVETLQALPTCDVAEQHNVCFHYTFALNRRNRPGDRAKALSVLLPLVQLEGSVAPDLYCMCGRIYKDMFFSSGFQDAGHREQAYHWYRKAFDVEPSLHSGINAAVLLIAAGQHFEDSKELRLIGMKLGCLLARKGCVEKMQYYWDVGFYLGAQILANDPTQVVLAAEQLYKLNAPIWYLVSVMETFLLYQHFRPTPEPPGGPPRRAHFWLHFLLQSCQPFKTACAQGDQCLVLVLEMNKVLLPAKLEVRGTDPVSTVTLSLLEPETQDIPSSWTFPVASICGVSASKRDERCCFLYALPPAQDVQLCFPSVGHCQWFCGLIQAWVTNPDSTAPAEEAEGAGEMLEFDYEYTETGERLVLGKGTYGVVYAGRDRHTRVRIAIKEIPERDSRFSQPLHEEIALHRRLRHKNIVRYLGSASQGGYLKIFMEEVPGGSLSSLLRSVWGPLKDNESTISFYTRQILQGLGYLHDNHIVHRDIKGDNVLINTFSGLLKISDFGTSKRLAGITPCTETFTGTLQYMAPEIIDQGPRGYGKAADIWSLGCTVIEMATGRPPFHELGSPQAAMFQVGMYKVHPPMPSSLSAEAQAFLLRTFEPDPRLRASAQTLLGDPFLQPGKRSRSPSSPRHAPRPSDAPSASPTPSANSTTQSQTFPCPQAPSQHPPSPPKRCLSYGGTSQLRVPEEPAAEEPASPEESSGLSLLHQESKRRAMLAAVLEQELPALAENLHQEQKQEQGARLGRNHVEELLRCLGAHIHTPNRRQLAQELRALQGRLRAQGLGPALLHRPLFAFPDAVKQILRKRQIRPHWMFVLDSLLSRAVRAALGVLGPEVEKEAVSPRSEELSNEGDSQQSPGQQSPLPVEPEQGPAPLMVQLSLLRAETDRLREILAGKEREYQALVQRALQRLNEEARTYVLAPEPPTALSTDQGLVQWLQELNVDSGTIQMLLNHSFTLHTLLTYATRDDLIYTRIRGGMVCRIWRAILAQRAGSTPVTSGP
# Biological target: BAG3 (BCL-2-associated athanogene 3) (human (endogenous in HEK293T)) (UniProt O95817)
# Assay: affinity purification with mass spectrometry; endogenous BAG3 immunoprecipitated with anti-BAG3 antibody and Protein A/G magnetic beads from HEK293T lysate; cells treated with DMSO (basal) or 10 µM MG132 for 6 h; IgG IP (MG132_IgG) as control; label-free quantification, three biological replicates
row,binding,Binder
1,binds,B1
2,binds,B2
3,binds,B3
4,binds,B4
5,binds,B5
6,binds,B6
